Values of other authors in patent publication US7314716B2, “Gustducin γ subunit materials and methods” (Mount Sinai School of Medicine, priority 1999, dated 2008).
Some results were stated once for a whole list of compounds, not compound by compound.

Tested on: murine taste tissue
Conditions: shown previously; cited from earlier work

Compound | time of rapid generation of inositol triphosphate (IP3) [ms]
CC[N+](CC)(CC(=O)Nc1c(C)cccc1C)Cc1ccccc1 [denatonium benzoate] | 50 to 200
CC(=O)OC[C@H]1O[C@@](COC(C)=O)(O[C@H]2O[C@H](COC(C)=O)[C@@H](OC(C)=O)[C@H](OC(C)=O)[C@H]2OC(C)=O)[C@@H](OC(C)=O)[C@@H]1OC(C)=O [sucrose octa-acetate] | 50 to 200
